Results are given in words; binding and its absence hold for the method and conditions named. A result given as binding can be weak or reduced; the word gives no strength. Where a sequence is shown, tags or fusion partners need not be part of it.
Biological target: T1, AtCYP59 (PlCYP5 homolog of Arabidopsis thaliana), two-hybrid fusion (Arabidopsis thaliana) (UniProt Q6Q151)
T1 sequence: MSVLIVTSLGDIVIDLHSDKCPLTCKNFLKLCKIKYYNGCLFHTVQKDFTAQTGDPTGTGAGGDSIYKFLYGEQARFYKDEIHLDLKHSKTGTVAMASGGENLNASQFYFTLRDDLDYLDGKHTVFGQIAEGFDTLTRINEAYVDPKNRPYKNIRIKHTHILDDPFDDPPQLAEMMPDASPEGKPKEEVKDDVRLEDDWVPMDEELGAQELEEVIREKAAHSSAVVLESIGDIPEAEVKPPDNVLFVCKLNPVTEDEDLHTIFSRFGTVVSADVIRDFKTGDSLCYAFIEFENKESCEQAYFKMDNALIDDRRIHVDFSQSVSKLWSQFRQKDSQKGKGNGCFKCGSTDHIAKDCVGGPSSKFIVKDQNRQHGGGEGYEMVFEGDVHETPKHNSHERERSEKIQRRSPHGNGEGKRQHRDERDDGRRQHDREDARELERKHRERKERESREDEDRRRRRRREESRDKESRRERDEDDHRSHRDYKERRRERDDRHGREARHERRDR
Experiment: two-hybrid; pGBKT7 (BD) bait and pGADT7 (AD) prey co-transformed into yeast Y2H GOLD; spotted in 10-fold dilution on SD/-Trp-Leu and SD/-Trp-Leu-His-Ade with X-alpha-gal and AbA, 3 days at 30 C

## PlRPS15 (uS19) of Purpureocillium lilacinum, two-hybrid fusion
  binding: binds
